Source: patent US20160024213A1 (VIB VZW, published 2016)

Biological target: recombinant MMR (species not said in the sentence)
Assay: SPR

binding	Binder
binds	NbhmMMRm3.49 (VHH) VHH: QVQLQESGGGLVQPGGSLRLSCAASGFSLDYYAIGWFRQAPGKEREGISCISYKGGSTTYADSVKGRFTISKDNAKNTAYLQMNSLKPEDTGIYSCAAGFVCYNYDYWGQGTQVTVSS
binds	NbhMMRm3.1 (VHH) VHH: QVQLQESGGGLVQPGGSLRLSCAASGFTLDYYAIGWFRQAPGKEREGISCISYKGGSTTYADSVKGRFTISKDNAKNTAYLQMNNLKPEDTGIYYCAAGFVCYNYDYWGPGTQVTVSS

These are yes or no findings as the source states them, for the method shown. A result given as binding can be weak or reduced; the word gives no strength.
